In PubChem BioAssay (Tox21):
Where “and” joins values, the source holds several entries; their conditions need not be identical. Equal values may be shown once. Inconclusive results, whose numbers are uncertain, are shown with a selection of clear calls. Where the call is inconclusive, the potency comes from a doubtful curve fit. More than one record can exist for a structure, and the calls need not agree. Calls of active or inactive are those of the source. Unless noted, calls come from the whole dose curve.

Chains of the proteins cited; added tags and fusions are not shown. Lines headed by an entry give the natural chain unless they say otherwise; changes in a name come on top.
UniProt P11229: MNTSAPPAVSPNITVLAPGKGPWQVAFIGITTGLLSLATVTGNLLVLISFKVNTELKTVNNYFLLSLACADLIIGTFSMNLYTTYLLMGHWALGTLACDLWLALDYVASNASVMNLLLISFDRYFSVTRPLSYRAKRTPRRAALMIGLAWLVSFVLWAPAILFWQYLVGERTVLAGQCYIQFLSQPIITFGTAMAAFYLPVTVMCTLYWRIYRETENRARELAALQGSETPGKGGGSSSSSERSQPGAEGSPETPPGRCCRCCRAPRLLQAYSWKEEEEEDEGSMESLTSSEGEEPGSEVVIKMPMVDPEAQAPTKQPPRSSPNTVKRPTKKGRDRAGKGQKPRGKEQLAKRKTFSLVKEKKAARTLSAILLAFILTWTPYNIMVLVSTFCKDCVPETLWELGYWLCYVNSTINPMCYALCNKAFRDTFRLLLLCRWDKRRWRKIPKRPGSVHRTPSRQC
UniProt P28223, whole entry, looked up: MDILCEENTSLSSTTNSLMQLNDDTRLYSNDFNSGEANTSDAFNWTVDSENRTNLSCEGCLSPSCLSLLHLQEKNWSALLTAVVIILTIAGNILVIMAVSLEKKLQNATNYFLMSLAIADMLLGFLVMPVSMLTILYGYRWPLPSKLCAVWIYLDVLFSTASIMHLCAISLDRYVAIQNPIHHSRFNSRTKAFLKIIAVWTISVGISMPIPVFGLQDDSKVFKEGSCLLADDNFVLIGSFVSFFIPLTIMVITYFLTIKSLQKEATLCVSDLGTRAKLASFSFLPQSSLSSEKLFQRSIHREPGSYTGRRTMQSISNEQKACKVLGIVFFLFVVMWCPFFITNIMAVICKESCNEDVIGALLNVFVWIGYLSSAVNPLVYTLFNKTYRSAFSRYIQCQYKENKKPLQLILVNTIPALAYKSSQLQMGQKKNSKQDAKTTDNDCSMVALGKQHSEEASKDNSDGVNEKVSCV
UniProt P14416, whole entry, looked up: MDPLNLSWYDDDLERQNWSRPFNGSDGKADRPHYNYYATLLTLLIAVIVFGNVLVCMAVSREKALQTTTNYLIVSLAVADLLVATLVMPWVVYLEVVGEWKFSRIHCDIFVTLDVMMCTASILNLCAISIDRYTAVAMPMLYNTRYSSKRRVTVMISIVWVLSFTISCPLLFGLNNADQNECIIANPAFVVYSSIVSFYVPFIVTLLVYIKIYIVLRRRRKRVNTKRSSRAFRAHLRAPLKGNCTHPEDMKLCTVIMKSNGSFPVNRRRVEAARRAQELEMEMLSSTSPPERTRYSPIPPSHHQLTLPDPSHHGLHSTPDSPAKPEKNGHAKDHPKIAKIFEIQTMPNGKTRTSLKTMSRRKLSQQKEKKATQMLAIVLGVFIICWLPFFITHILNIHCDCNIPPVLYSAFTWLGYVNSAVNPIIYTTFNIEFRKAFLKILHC

Legend:
[1] = p53 small molecule agonists, cell-based qHTS assay with human liver microsomes (AID 1963577); conditions: HCT-116 p53RE-bla with human liver microsomes, ratio, 16 h; activation: at 66 µM (top of the series) unless noted
Outline: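 Metabolically competent format: test substances, human liver microsomes and NADPH (both 0.5 mg/mL final) incubated with p53RE-bla cells 16 h at 37 C. Beta-lactamase reporter signal then quantified by fluorescence.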

[2] = p53 small molecule agonists, cell-based qHTS assay with human liver microsomes: qHTS cell viability counter screen (AID 1963579); note: nearly all actives have a fitted effect of over 45% in size
Outline: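 Tox21 library compounds, delivered from DMSO stocks, were tested on p53RE-bla cells together with 0.5 mg/mL human liver microsomes and 0.5 mg/mL NADPH (final) over 16 h at 37 C; CellTiter-Glo luminescence served as the cytotoxicity measure.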

[3] = p53 small molecule agonists, cell-based qHTS assay with rat liver microsomes: qHTS cell viability counter screen (AID 1963580); note: nearly all actives have a fitted effect of over 45% in size
Outline: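 Luminescent ATP readout (CellTiter-Glo, 30 min at room temperature) reports viability of p53RE-bla HCT-116 cells after 16 h at 37 C with test compounds under metabolic activation by rat liver microsomes and NADPH at 0.5 mg/mL final each.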

[4] = p53 small molecule agonists, cell-based qHTS assay (AID 1963582; active = well fitted activation curve with a large enough effect in the signal ratio in the repeat runs, not every such curve was filed as active; inconclusive = weak or mixed curves; the % refers to the signal ratio; for activation: % is set by controls: 0 for no effect and ±100 for the full control effect); conditions: HCT-116 p53RE-bla reporter, beta-lactamase FRET ratio, 16 h; activation: at 66 µM (top of the series) unless noted
Outline: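 Beta-lactamase reporter cells (p53RE-bla) treated with compounds for 16 h at 37 C; FRET substrate, 2 h, room temperature; fluorescence intensity.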

[5] = molecular target: Muscarinic acetylcholine receptor M1 (Homo sapiens) (UniProt P11229); experiment: Cholinergic receptor muscarinic 1 (CHRM1) small molecule antagonists, cell-based qHTS assay (AID 1963588); note: nearly all actives have a fitted effect of over 40% in size
Outline: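 Compounds were tested at 15 concentrations in three independent runs. Dye-loaded CHRM1-CHO cells were exposed 5 min at room temperature before stimulation by acetylcholine added at 50nM. Intracellular calcium was read kinetically on FDSS for 3 min.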

[6] = cAMP Responsive Elements (CRE) small molecule agonists, cell-based qHTS assay (AID 1963590); conditions: CRE-bla HEK293T, beta-lactamase FRET ratio, 3 h; activation: at 92.4 µM (top of the series) unless noted
Outline: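 Quantitative HTS for CRE agonists: HEK 293T CRE-bla cells, overnight plating, 3 h compound incubation at 37 C/5% CO2, then 2 h room-temperature LiveBLAzer B/G FRET substrate loading.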

[7] = cAMP Responsive Elements (CRE) small molecule antagonists, cell-based qHTS assay (AID 1963591; active = well fitted inhibition curve with a large enough effect in the signal ratio in the repeat runs, not every such curve was filed as active; inconclusive = weak or mixed curves, or effect the other way; the % refers to the signal ratio; for activity change, negative = inhibition: % is set by controls: 0 for no effect and ±100 for the full control effect); conditions: CRE-bla HEK293T, beta-lactamase FRET ratio
Outline: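 Fluorescence intensity from cleaved LiveBLAzer B/G substrate (2 h, room temperature) quantified CRE-bla activity in HEK 293T cells exposed 3 h to compound with 0.25 uM final NKH477.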

[8] = molecular target: Beta-2 adrenergic receptor (Homo sapiens) (UniProt P07550); experiment: Adrenergic beta2 receptor (ADRB2) small molecule agonists, cell-based qHTS assay (AID 1963593); conditions: CHO-ADRB2 cells, cAMP HTRF, 30 min; activation: at 92.4 µM (top of the series) unless noted;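 for activation: CHO cells stably overexpressing human ADRB2; % is set by controls: 0 for no effect and ±100 for the full control effect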
Outline: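 CHO cells stably over-expressing ADRB2 were plated overnight at 37C, then dosed with compounds plus a stimulation mix containing 100uM IBMX and 25uM Ro-20-1724 for 0.5hr at room temperature. cAMP was measured by HTRF competition, 1hr.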

[9] = p53 small molecule agonists, cell-based qHTS assay with rat liver microsomes (AID 1963578); conditions: HCT-116 p53RE-bla, beta-lactamase ratio, 16 h; activation: at 66 µM (top of the series) unless noted; for activation: % is set by controls: 0 for no effect and ±100 for the full control effect
Outline: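 Each plate received p53RE-bla cells, then compound, then rat liver microsomes and NADPH (both 0.5 mg/mL final). Plates were held 16 h at 37 C, and beta-lactamase activity was detected with LiveBLAzer over 2 h.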

[10] = p53 small molecule agonists, cell-based qHTS assay: qHTS cell viability counter screen (AID 1963581); note: nearly all actives have a fitted effect of over 45% in size
Outline: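 Multiplexed with the reporter read, a CellTiter-Glo step (30 min, room temperature) gauges ATP-based viability of HCT-116 p53RE-bla cells after 16 h compound incubation at 37 C.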

[11] = molecular target: 5-hydroxytryptamine receptor 2A (Homo sapiens) (UniProt P28223); experiment: 5-hydroxytryptamine receptor 2A (HTR2A) small molecule antagonists, cell-based qHTS assay (AID 1963586); note: nearly all actives have a fitted effect of over 45% in size
Outline: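 CHO cells stably expressing human HTR2A were plated for 18 h at 37 C, then loaded with calcium dye for 1 h. Compounds were preincubated 5 min at room temperature before DOI (4 nM solution) was added. Kinetic fluorescence was read for 3 min.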

[12] = molecular target: D(2) dopamine receptor (Homo sapiens) (UniProt P14416); experiment: Dopamine D2 receptor (DRD2) small molecule agonists, cell-based qHTS assay (AID 1963594); conditions: HEK293-DRD2 cAMP HTRF, agonist mode, 30 min; activation: at 92.4 µM (top of the series) unless noted; note: nearly all actives have a fitted effect of over 35% in size
Outline: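 HEK293 cells stably expressing DRD2 were cultured 24 h at 37 C, then given Ro20-1724 (0.1 mM final) and compounds for 10 min at room temperature. NKH477 (200nM) was then added for 30 min. cAMP was read by HTRF.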

[13] = molecular target: D(2) dopamine receptor (Homo sapiens) (UniProt P14416); experiment: Dopamine D2 receptor (DRD2) small molecule antagonists, cell-based qHTS assay (AID 1963595; active = well fitted inhibition curve with a large enough effect in the signal ratio in the repeat runs, with a control signal flat; inconclusive = weak or mixed curves, or effect the other way; the % refers to the signal ratio); conditions: HEK293-DRD2 cAMP HTRF antagonist mode; activity change, negative = inhibition: at 92.4 µM (top of the series) unless noted
Outline: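 Antagonism was scored as restored cAMP in HEK293-DRD2 cells. These cells were stimulated with 200 nM NKH477 and 12 nM quinpirole for 30 min at room temperature, in the presence of 0.1 mM Ro20-1724.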

[14] = molecular target: Beta-2 adrenergic receptor (Homo sapiens) (UniProt P07550); experiment: Adrenergic beta2 receptor (ADRB2) small molecule antagonists, cell-based qHTS assay (AID 1963592); conditions: CHO-ADRB2 cells, isoproterenol-stimulated cAMP HTRF ratio, 0.5 h; activity change, negative = inhibition: at 92.4 µM (top of the series) unless noted; note: nearly all actives have a fitted effect of over 50% in size
Outline: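 Assay format: CHO-ADRB2 cells, 18-20hr seeding at 37C/5% CO2, then compound plus 1nM isoproterenol agonist mix for 0.5hr RT. Homogeneous time-resolved fluorescence cAMP detection after 1hr, expressed as 665/615 nm ratio.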

[15] = activity change, negative = inhibition: at 92.4 µM (top of the series) unless noted
Potency is the fitted concentration of half-maximal effect.

Oc1c(Cl)cc(Cl)c(Cl)c1Cl
inconclusive: Potency [1] 8.94 µM [fluorescent, partial curve] | Potency [2] 50.3 µM [cytotoxic, partial curve, poor fit] | Potency [3] 40.8 µM [cytotoxic, partial curve, poor fit] | Potency [4] 39.9 µM [activator, partial curve] and 25.7 µM [activator, partial curve] | Potency [5] 42.1 µM [inhibitor, single point] | Potency [6] 67.1 µM [rising, single point] and 68.6 µM [rising, single point] | activity change, negative = inhibition [7, 15] 25% | Potency [8] 67.1 µM [inhibitor, single point] | activation [8] -19.9%

CCS(=O)(=O)c1ccc(OC)c(C(=O)OC)c1
inactive: Potency [4]
inconclusive: Potency [1] 8.9 µM [rising, single point] | Potency [2] 12.6 µM [cytotoxic, single point]

Cc1cc2c(cc1CC(=O)c1sccc1S(=O)(=O)Nc1onc(C)c1Cl)OCO2
inconclusive: Potency [1] 14.1 µM [fluorescent, partial curve, poor fit] | Potency [9] 12.6 µM [fluorescent]
inactive: Potency [8]

CC(C)(C)C(=O)c1ccccc1
inconclusive: Potency [1] 45.8 µM [fluorescent] | activation [8] -34.5%
inactive: Potency [9]

For reference, two of the compounds above.
CCS(=O)(=O)c1ccc(OC)c(C(=O)OC)c1
inactive: Potency [4]
inconclusive: Potency [1] 8.9 µM [rising, single point] | Potency [2] 12.6 µM [cytotoxic, single point]

Cc1cc2c(cc1CC(=O)c1sccc1S(=O)(=O)Nc1onc(C)c1Cl)OCO2
inconclusive: Potency [1] 14.1 µM [fluorescent, partial curve, poor fit] | Potency [9] 12.6 µM [fluorescent]
inactive: Potency [8]

Additional entries follow:

Cc1cn([C@H]2C[C@H](N=[N+]=[N-])[C@@H](CO)O2)c(=O)[nH]c1=O
inconclusive: Potency [1] 45.8 µM [fluorescent, partial curve] | Potency [2] 22.3 µM [cytotoxic, single point] | activation [8] 9.96% [at 42.5 µM]
inactive: Potency [10]

Nc1ccc2c(c1)C(=O)c1ccccc1C2=O
active: Potency [2] 4.08 µM
inactive: Potency [11] | Potency [7, 15]
inconclusive: activation [1] 6.2% | Potency [3] 1.79 µM [cytotoxic, full curve, poor fit] | Potency [8] 30.1 µM [cytotoxic, partial curve, poor fit] | activation [8] -36.3% | Potency [12] 49.5 µM and 36.4 µM | Potency [13] 53.5 µM [cytotoxic] | activity change, negative = inhibition [13] -9.8%

C=C(C)C(=O)OCCOC(=O)C(=C)C
inconclusive: Potency [1] 20.9 µM [fluorescent, full curve] | Potency [9] 41.8 µM [fluorescent, partial curve] | Potency [11] 0.0038 µM [inhibitor, full curve, poor fit] | activation [8] 11.5% and -8.74%

COc1cc([C@@H]2c3cc4c(cc3[C@H](O)[C@H]3COC(=O)[C@H]23)OCO4)cc(OC)c1OC
inconclusive: Potency [1] 40.8 µM [rising, partial curve] | Potency [2] 3.63 µM [rising, full curve] and 446 nM [rising, full curve] | Potency [3] 3.16 µM [rising, full curve] | Potency [10] 32.4 nM [rising, full curve] and 25.1 nM [rising, full curve] | Potency [6] 38.5 nM [fluorescent, full curve, poor fit] and 53.1 nM [fluorescent, full curve] | activity change, negative = inhibition ([7]; at 42.4 µM (top of the series)) 17.7% | activity change, negative = inhibition ([7]; at 92.4 µM (top of the series)) 13.8% | Potency [14] 0.0015 µM [rising, full curve, poor fit] | Potency [8] 0.544 µM [inhibitor, single point]

COC(=O)CCC(=O)OC
inactive: Potency [8]
inconclusive: activation [1] 8.39% | activation [9] 22.6% | Potency [13] 77 µM [inhibitor, single point]

CCCCOCCOCCO
inactive: Potency [7, 15]
inconclusive: Potency [1] 14.5 µM [fluorescent, full curve, poor fit] | Potency [2] 10.2 µM [cytotoxic, single point] | Potency [4] 10.2 µM [falling, single point] | Potency [11] 4.21 µM [inhibitor, single point] | Potency [5] 3.75 µM [inhibitor, full curve, poor fit] | Potency [8] 2.44 µM [inhibitor, single point] | activity change, negative = inhibition [13] -31.3%

CN1C(=O)OC(C)(C)C1=O
inconclusive: activity change, negative = inhibition [7, 15] -0.48% | activation [8] 26.6%
inactive: Potency [1] | Potency [9]

CCCc1c(OCCCOc2ccc(OCC(=O)O)cc2)ccc(C(C)=O)c1O
inconclusive: Potency [2] 51.3 µM [cytotoxic, single point] | Potency [4] 16.2 µM [rising, single point] | Potency [5] 1.68 µM [inhibitor, single point] | Potency [6] 54.5 µM [fluorescent, partial curve] | Potency [7, 15] 61.1 µM [fluorescent, partial curve]
active: Potency [3] 40.8 µM
inactive: Potency [1] | Potency [14] | Potency [8]
